Laboratory results: the supplement of paper PMC6078165
Values are relative to the signal before dosing, not to a vehicle control; the signal also falls without drug.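 Fibroblast labels name human fibroblasts: mostly primary ones from tissues such as uterus (C12385, HUF), lung (H6013), bone (Hs27A), adrenal (HADF) and skin (WS1), plus mammary HMF and breast cancer-associated Hs343T. The cancer cells are basal-like or mesenchymal-like triple-negative breast cancer lines. The paper calls a changed response a hit when it shifts by more than 3x the replicate standard deviation. The tissue of the other fibroblasts is not given here.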

Test system: HCC1143
Assay: relative JC-1 red fluorescence (viability) vs pre-drug, coculture with fibroblast (fraction); higher = more viable cancer cells
Description: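 JC-1 labelled TNBC cells cocultured 1:1 (1,500 cells each) with CellTrace Violet stained primary or stromal fibroblasts in 384-well plates in FluoroBrite medium, treated with one of 42 anticancer drugs at 0.1, 1, 10 or 100 uM. JC-1 red fluorescence (mitochondrial integrity in cancer cells only) was read by plate reader every 8 h for 72 h. Values are normalised to each well's pre-drug value. The stock of one drug was tenfold lower, so its dose labels may be too high.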

CC/C(=C(\c1ccccc1)c1ccc(OCCN(C)C)cc1)c1ccccc1 [Tamoxifen]
relative JC-1 red fluorescence
Conditions	8 h	16 h	24 h	32 h	40 h	48 h	56 h	64 h	72 h
0.1 µM, coculture fibroblast: C12385	0.867	0.7777	0.7113	0.648	0.588	0.55	0.5035	0.474	0.457
0.1 µM, coculture fibroblast: H6013	0.838	0.762	0.748	0.752	0.683	0.683	0.645	0.627	0.593
0.1 µM, coculture fibroblast: H6019	0.7879	0.7064	0.6622	0.5998	0.563	0.538	0.488	0.442	0.4
0.1 µM, coculture fibroblast: H6076	0.7989	0.735	0.708	0.686	0.634	0.616	0.59	0.569	0.581
0.1 µM, coculture fibroblast: H6231	0.8136	0.791	0.672	0.612	0.5805	0.5556	0.5137	0.481	0.4603
0.1 µM, coculture fibroblast: HADF	0.73	0.627	0.602	0.597	0.494	0.469	0.434	0.404	0.388
0.1 µM, coculture fibroblast: HCFa	0.785	0.69	0.6561	0.6422	0.5537	0.5288	0.483	0.446	0.424
0.1 µM, coculture fibroblast: HCPF	0.827	0.82	0.739	0.6577	0.651	0.6102	0.581	0.5457	0.5286
0.1 µM, coculture fibroblast: HHSteC	0.825	0.73	0.703	0.677	0.604	0.576	0.532	0.503	0.454
0.1 µM, coculture fibroblast: HMF	0.794	0.828	0.721	0.637	0.64	0.603	0.564	0.535	0.513
0.1 µM, coculture fibroblast: HPFa	0.9076	0.8105	0.766	0.671	0.605	0.567	0.5	0.455	0.408
0.1 µM, coculture fibroblast: HUF	0.853	0.7422	0.699	0.629	0.582	0.559	0.51	0.482	0.455
0.1 µM, coculture fibroblast: Hs5	0.861	0.849	0.82	0.825	0.75	0.736	0.722	0.703	0.706
0.1 µM, coculture fibroblast: Hs27A	0.722	0.63	0.603	0.604	0.498	0.494	0.442	0.406	0.358
0.1 µM, coculture fibroblast: Hs343T	0.823	0.802	0.7437	0.689	0.6512	0.613	0.564	0.538	0.518
0.1 µM, coculture fibroblast: WS1	0.8279	0.7237	0.6587	0.578	0.51	0.469	0.4238	0.3889	0.3613
1 µM, coculture fibroblast: C12385	0.859	0.7609	0.7173	0.658	0.597	–	–	–	–
1 µM, coculture fibroblast: H6013	0.841	0.793	0.76	0.761	0.692	–	–	–	–
1 µM, coculture fibroblast: H6019	0.8144	0.768	0.736	0.676	0.643	–	–	–	–
1 µM, coculture fibroblast: H6076	0.813	0.817	0.815	0.816	0.759	–	–	–	–
1 µM, coculture fibroblast: H6231	0.831	0.8048	0.748	0.66	0.65	–	–	–	–
1 µM, coculture fibroblast: HADF	0.737	0.6624	0.636	0.642	0.534	–	–	–	–
1 µM, coculture fibroblast: HCFa	0.804	0.707	0.661	0.645	0.567	–	–	–	–
1 µM, coculture fibroblast: HCPF	0.8253	0.802	0.77	0.706	0.695	–	–	–	–
1 µM, coculture fibroblast: HHSteC	0.847	0.77	0.737	0.71	–	–	–	–	–
1 µM, coculture fibroblast: HMF	0.809	0.8674	0.817	0.731	–	–	–	–	–
1 µM, coculture fibroblast: HPFa	0.9126	0.839	0.803	0.712	–	–	–	–	–
1 µM, coculture fibroblast: HUF	0.885	0.8	0.755	0.688	–	–	–	–	–
1 µM, coculture fibroblast: Hs5	0.8666	0.8556	0.826	0.819	–	–	–	–	–
1 µM, coculture fibroblast: Hs27A	0.756	0.7	0.66	0.654	–	–	–	–	–
1 µM, coculture fibroblast: Hs343T	0.8482	0.86	0.835	0.804	–	–	–	–	–
1 µM, coculture fibroblast: WS1	0.864	0.795	0.791	0.731	–	–	–	–	–
